# From PubChem BioAssay (NCATS)
# The shares of active, inactive and inconclusive entries below differ from those in the screen. A potency beside an inconclusive call is a rough fit, not a confirmed value. Active and inactive are the calls of the source. Unless noted, calls follow the shape of the dose curve; as a rule, active = well fitted cell-killing curve with a large enough effect; inconclusive = small, poorly fitted or top-dose-only effect, or effect the other way; inactive = no such curve, though single readings can be large or run the other way.
# Columns and labels:
# [1] = Quantitative High-Throughput drug screen in 47 multiple myeloma cell lines against the NCATS MIPE library collection: XG6_PLB cell viability assay (AID 1919865); conditions: XG6 myeloma viability, CellTiter-Glo ATP luminescence, 48 h; viability (% of control): at 45.8 µM (top of the series); also: nearly all actives have a fitted effect of over 40% in size
# In short: (§1)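 Viability after 48 h drug exposure was measured as ATP-dependent luminescence. Cells, 500 per well, sat at 37 °C under 5% CO2; DMSO wells set 100%, media-only wells 0%.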
# [2] = Quantitative High-Throughput drug screen in 47 multiple myeloma cell lines against the NCATS MIPE library collection: XG1_PLB cell viability assay (AID 1919866); conditions: CellTiter-Glo ATP, 48 h; viability: at 45.8 µM (top of the series); also: nearly all actives have a fitted effect of over 35% in size
# In short: as §1
# [3] = Quantitative High-Throughput drug screen in 47 multiple myeloma cell lines against the NCATS MIPE library collection: PCM6_Riken cell viability assay (AID 1919870); conditions: CellTiter-Glo ATP, 48 h; viability (% of control): at 45.8 µM (top of the series); also: nearly all actives have a fitted effect of over 30% in size
# In short: as §1
# [4] = Quantitative High-Throughput drug screen in 47 multiple myeloma cell lines against the NCATS MIPE library collection: KMS11_JCRBsus cell viability assay (AID 1919873); conditions: KMS11 myeloma viability, CellTiter-Glo ATP luminescence, 48 h; viability (% of control): at 45.8 µM (top of the series); also: nearly all actives have a fitted effect of over 50% in size
# In short: as §1
# [5] = Quantitative High-Throughput drug screen in 47 multiple myeloma cell lines against the NCATS MIPE library collection: KMS28BM_JCRB cell viability assay (AID 1919874); conditions: CellTiter-Glo ATP, 48 h; series mostly up to 45.8 µM; also: nearly all actives have a fitted effect of over 35% in size
# In short: as §1
# [6] = qHTS for identification of novel therapeutic agents for treatment of microphthalmiaassociated transcription factor (MiT) renal cell carcinoma (RCC) (AID 1963991; calls by dose curve); conditions: TFE3-RCC UOK109 viability, CellTiter-Glo, 48 h; active = Z-AUC below -0.8 in all three lines
# In short: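 Curves over 11 concentrations were fitted to CellTiter-Glo luminescence, scaled between empty wells (0%) and DMSO (100%) viability. Cells were UOK109, UOK124 and UOK145 TFE3-fusion RCC lines at 500/well, exposed 48 hours at 37 C.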
# [7] = Quantitative High-Throughput drug screen in 47 multiple myeloma cell lines against the NCATS MIPE library collection: RPMI8226_ATCC cell viability assay (AID 1919871); conditions: RPMI8226 myeloma viability, CellTiter-Glo ATP luminescence, 48 h; series mostly up to 45.8 µM; also: nearly all actives have a fitted effect of over 30% in size
# In short: as §1
# [8] = Quantitative High-Throughput drug screen in 47 multiple myeloma cell lines against the NCATS MIPE library collection: PE2_PLB cell viability assay (AID 1919869); conditions: PE2_PLB myeloma cells viability, ATP luminescence, 48 h; viability (% of control): at 45.8 µM (top of the series); also: nearly all actives have a fitted effect of over 35% in size
# In short: as §1
# [9] = Quantitative High-Throughput drug screen in 47 multiple myeloma cell lines against the NCATS MIPE library collection: OPM2_DSMZ cell viability assay (AID 1919872); conditions: OPM2 myeloma viability, CellTiter-Glo ATP luminescence, 48 h; series mostly up to 45.8 µM; also: nearly all actives have a fitted effect of over 30% in size
# In short: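 Approved and investigational drugs from MIPE 4.0 were added by pin tool to 500 cells per well. After 48 hours at 37C, ATP-based CellTiter-Glo luminescence indicated remaining viability.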
# [10] = Quantitative High-Throughput drug screen in 47 multiple myeloma cell lines against the NCATS MIPE library collection: VP6_DJ cell viability assay (AID 1919867); conditions: ATP luminescence, 48 h; series mostly up to 45.8 µM; also: nearly all actives have a fitted effect of over 40% in size
# In short: as §1
# [11] = Quantitative High-Throughput drug screen in 47 multiple myeloma cell lines against the NCATS MIPE library collection: UTMC2_PLB cell viability assay (AID 1919868); conditions: CellTiter-Glo ATP luminescence, 48 h; series mostly up to 45.8 µM; also: nearly all actives have a fitted effect of over 55% in size
# In short: as §1
# Potency is read from the fitted curve at half-maximal effect.
Compound,Potency [1],Potency [2],Potency [3],Potency [4],Potency [5],Potency [6],Potency [7],Potency [8],Potency [9],Potency [10],Potency [11]
CCCc1nc2c(C)cc(-c3nc4ccccc4n3C)cc2n1Cc1ccc(-c2ccccc2C(=O)O)cc1,active: 23.5 µM,active: 20.9 µM,"inconclusive: 18.7 µM [cytotoxic, partial curve, poor fit]",inactive,inactive,"inconclusive: 0.0662 µM [rising, full curve, poor fit]",,,,,
Cc1cccc(Nc2nc(-c3ccncc3)cs2)c1,"inconclusive: 26.4 µM [cytotoxic, single point]","inconclusive: 20.9 µM [cytotoxic, partial curve]",,"inconclusive: 23.5 µM [cytotoxic, partial curve]","inconclusive: 33.2 µM [cytotoxic, single point]","inconclusive: 14.8 µM [falling, partial curve]","inconclusive: 18.7 µM [cytotoxic, partial curve, poor fit]",,,,
Cn1ccc2cc3c(cc21)CCN3C(=O)Nc1cccnc1,active: 11.8 µM,"inconclusive: 37.2 µM [cytotoxic, single point]",,"inconclusive: 29.6 µM [cytotoxic, single point]","inconclusive: 37.2 µM [cytotoxic, single point]",inconclusive: 0.00166 µM,,"inconclusive: 26.4 µM [cytotoxic, single point]","inconclusive: 8.33 µM [rising, single point]",,
CC(C)NCC(O)c1ccc(O)c(O)c1 (centres undefined),active: 0.743 µM,active: 1.87 µM,,,,"inconclusive: 0.935 µM [falling, full curve]","inconclusive: 23.5 µM [cytotoxic, partial curve, poor fit]",active: 1.48 µM,,,
Nc1ncnc2c1ncn2[C@@H]1O[C@@H](CO)[C@H](O)[C@H]1O,inactive,,,,"inconclusive: 0.0209 µM [rising, full curve, poor fit]",,,,,"inconclusive: 11.8 µM [cytotoxic, partial curve, poor fit]","inconclusive: 0.332 µM [cytotoxic, full curve, poor fit]"
OCCC#Cc1nc(-c2ccc(F)cc2)c(-c2ccncc2)n1CCCc1ccccc1,"inconclusive: 29.6 µM [cytotoxic, single point]",active: 18.7 µM,,"inconclusive: 33.2 µM [cytotoxic, partial curve]","inconclusive: 37.2 µM [cytotoxic, single point]","inconclusive: 33.2 µM [falling, single point]","inconclusive: 23.5 µM [cytotoxic, single point]",,"inconclusive: 29.6 µM [cytotoxic, single point]",,
C[C@](N)(Cc1ccc(O)c(O)c1)C(=O)O,"inconclusive: 29.6 µM [cytotoxic, single point]",,,,,,"inconclusive: 18.7 µM [cytotoxic, partial curve]","inconclusive: 26.4 µM [cytotoxic, single point]",,"inconclusive: 0.0148 µM [rising, full curve, poor fit]",inactive
C[C@@H]1CN(Cc2ccc(F)cc2)[C@@H](C)CN1C(=O)c1cc2c(C(=O)C(=O)N(C)C)cn(C)c2cc1Cl,"inconclusive: 13.2 µM [cytotoxic, partial curve]",,,"inconclusive: 37.2 µM [cytotoxic, single point]","inconclusive: 37.2 µM [cytotoxic, single point]","inconclusive: 33.2 µM [falling, partial curve, poor fit]","inconclusive: 26.4 µM [cytotoxic, single point]",,inactive,,"inconclusive: 6.62 µM [cytotoxic, partial curve, poor fit]"
Cc1cn([C@@H]2O[C@H](CO)[C@@H](O)[C@H]2F)c(=O)[nH]c1=O,"inconclusive: 20.9 µM [cytotoxic, partial curve]",,"inconclusive: 20.9 µM [cytotoxic, partial curve, poor fit]",inactive,,,,inactive,,,inactive
Cc1cnc(Nc2ccc(OCCN3CCCC3)cc2)nc1Nc1cccc(S(=O)(=O)NC(C)(C)C)c1,inactive,,"inconclusive: 0.469 µM [cytotoxic, full curve, poor fit]","inconclusive: 0.187 µM [cytotoxic, full curve, poor fit]",,,"inconclusive: 1.05 µM [cytotoxic, full curve, poor fit]","inconclusive: 0.0047 µM [cytotoxic, full curve, poor fit]",,,
Cc1ccc(NC(=O)c2ccc(CN3CCN(C)CC3)cc2)cc1Nc1nccc(-c2cccnc2)n1,,"inconclusive: 37.2 µM [cytotoxic, single point]",,"inconclusive: 33.2 µM [cytotoxic, single point]",,inconclusive: 2.64 µM,inactive,"inconclusive: 20.9 µM [cytotoxic, partial curve]",,active: 23.5 µM,"inconclusive: 0.0118 µM [rising, full curve, poor fit]"
O=C(O)c1cc(=O)c2c(OCC(O)COc3cccc4oc(C(=O)O)cc(=O)c34)cccc2o1,inactive,,,,inactive,,"inconclusive: 0.105 µM [rising, full curve]",inactive,,,"inconclusive: 11.8 µM [rising, single point]"
Cc1cc2cc3c(C)cc(=O)oc3c(C)c2o1,active: 6.62 µM,,,"inconclusive: 20.9 µM [cytotoxic, partial curve, poor fit]",,"inconclusive: 16.6 µM [falling, partial curve]",,,,,"inconclusive: 11.8 µM [cytotoxic, partial curve, poor fit]"
CCNC(=O)c1noc(-c2cc(C(C)C)c(O)cc2O)c1-c1ccc(CN2CCOCC2)cc1,active: 0.132 µM,,,,,"inconclusive: 0.132 µM [falling, full curve]",,,"inconclusive: 0.0935 µM [cytotoxic, full curve, poor fit]",,active: 0.0833 µM
CC(C)C(=O)Oc1ccc(CO)cc1[C@H](CCN(C(C)C)C(C)C)c1ccccc1,"inconclusive: 0.0296 µM [rising, full curve, poor fit]",,inactive,,inactive,inconclusive: 11.8 µM,"inconclusive: 16.6 µM [cytotoxic, partial curve]",inactive,,,"inconclusive: 0.0296 µM [rising, full curve, poor fit]"
